Experimental data: PubChem BioAssay AID1259308 (NCATS, 2017)

Assay: 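Knock-downs that increase output of a recombinant reporter protein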 (primary screen)
Cells: human HEK293 embryonic kidney cells stably expressing firefly luciferase (HEK-CMV-Luc2-Hygro)
Knock-down reagent: single siRNA against human genes, 0.8 pmol siRNA per well
Timing: 72 h
Detection: 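Reporter luminescence and viable-cell signal on separate replicate plates, given as percent of non-targeting control and median/MAD z-scores, plus per-cell luciferase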
Direction: total luciferase, z-score and total luciferase, % of control: higher = more reporter protein produced; luciferase per cell, z-score: higher = more reporter output per viable cell; viable cells, % of control: higher = more viable cells
Active means: 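An siRNA counts as active if its total luciferase robust z-score exceeds 3; genes with two or more such siRNAs out of three were retested with fresh siRNAs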
Meaning of the calls: active = raised luciferase; inactive = no rise
This is an unselected part of about 59,000 reagents. About 1,510 of them (2.6%) were called active. 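Calls use total luciferase alone and ignore viability, so some active siRNAs may act by altering cell number.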 The numbers tell different reagents against one gene apart.

no.	gene knocked down	reagent no.	total luciferase, z-score	total luciferase, % of control	luciferase per cell, z-score	viable cells, % of control	Outcome
1	RNF149 (ring finger protein 149)	1	0.155	85	-0.142	98.6	inactive
2	RNF149 (ring finger protein 149)	2	-0.737	67.2	-0.917	95.6	inactive
3	RNF149 (ring finger protein 149)	3	0.468	91.2	0.0581	100	inactive
4	DUBR (DPPA2 upstream binding RNA)	1	-0.451	72.9	0.675	68.2	inactive
5	DUBR (DPPA2 upstream binding RNA)	2	-1.73	47.5	-0.00481	53.2	inactive
6	DUBR (DPPA2 upstream binding RNA)	3	0.433	90.5	0.732	83.4	inactive
7	ERP29 (endoplasmic reticulum protein 29)	1	0.0977	83.8	0.503	82	inactive
8	ERP29 (endoplasmic reticulum protein 29)	2	-1.99	42.2	-2.38	88.4	inactive
9	ERP29 (endoplasmic reticulum protein 29)	3	-0.629	69.4	-1.67	120	inactive
10	ANO1 (anoctamin 1)	1	0.123	84.3	-0.0882	96.4	inactive
11	ANO1 (anoctamin 1)	2	0.144	84.7	0.464	83.8	inactive
12	ANO1 (anoctamin 1)	3	-1.32	55.7	-1.39	89.8	inactive
13	PDCL (phosducin like)	1	-0.298	76	-0.646	101	inactive
14	PDCL (phosducin like)	2	1.24	107	1.06	90.1	inactive
15	PDCL (phosducin like)	3	0.699	95.8	0.218	101	inactive
16	INKA1 (inka box actin regulator 1)	1	0.899	99.8	1.32	78.7	inactive
17	INKA1 (inka box actin regulator 1)	2	0.597	93.8	0.465	92.7	inactive
18	INKA1 (inka box actin regulator 1)	3	-1.59	50.3	-1.65	86.9	inactive
19	TNRC6A (trinucleotide repeat containing adaptor 6A)	1	0.0345	82.6	0.0095	92	inactive
20	TNRC6A (trinucleotide repeat containing adaptor 6A)	2	-0.0175	81.5	0.068	89.5	inactive
21	TNRC6A (trinucleotide repeat containing adaptor 6A)	3	-0.213	77.6	-0.254	92.8	inactive
22	RPL35 (ribosomal protein L35)	1	-2.94	23.5	-2.13	46	inactive
23	RPL35 (ribosomal protein L35)	2	-2.21	37.9	-1.85	68.9	inactive
24	RPL35 (ribosomal protein L35)	3	-2.33	35.5	0.348	36.2	inactive
25	CSPP1 (centrosome and spindle pole associated protein 1)	1	-1.1	60	-0.479	76.1	inactive
26	CSPP1 (centrosome and spindle pole associated protein 1)	2	-0.0386	81.1	-0.618	107	inactive
27	CSPP1 (centrosome and spindle pole associated protein 1)	3	-1.08	60.4	-0.225	71.7	inactive
28	UHMK1 (U2AF homology motif kinase 1)	1	1.01	102	0.587	97.6	inactive
29	UHMK1 (U2AF homology motif kinase 1)	2	-0.585	70.3	-1.04	103	inactive
30	UHMK1 (U2AF homology motif kinase 1)	3	-0.628	69.4	-1.06	102	inactive

Only “total luciferase, z-score”, for 7 of the entries above:
DUBR (DPPA2 upstream binding RNA) #3	0.433
ERP29 (endoplasmic reticulum protein 29) #1	0.0977
ERP29 (endoplasmic reticulum protein 29) #2	-1.99
ERP29 (endoplasmic reticulum protein 29) #3	-0.629
ANO1 (anoctamin 1) #1	0.123
ANO1 (anoctamin 1) #2	0.144
ANO1 (anoctamin 1) #3	-1.32

Further entries follow.
no.	gene knocked down	reagent no.	total luciferase, z-score	total luciferase, % of control	luciferase per cell, z-score	viable cells, % of control	Outcome
31	ABLIM2 (actin binding LIM protein family member 2)	1	0.978	101	0.383	102	inactive
32	ABLIM2 (actin binding LIM protein family member 2)	2	-0.524	71.5	-0.725	96.6	inactive
33	ABLIM2 (actin binding LIM protein family member 2)	3	-2.15	39.2	-1.68	68.1	inactive
34	MAPK8IP2 (mitogen-activated protein kinase 8 interacting protein 2)	1	0.224	86.3	0.108	93.8	inactive
35	MAPK8IP2 (mitogen-activated protein kinase 8 interacting protein 2)	2	-0.0945	80	-0.592	104	inactive
36	MAPK8IP2 (mitogen-activated protein kinase 8 interacting protein 2)	3	-1.64	49.3	-1.32	78	inactive
37	TPK1 (thiamin pyrophosphokinase 1)	1	-1.12	59.5	-1.71	104	inactive
38	TPK1 (thiamin pyrophosphokinase 1)	2	-0.249	76.9	-0.767	105	inactive
39	TPK1 (thiamin pyrophosphokinase 1)	3	-0.322	75.5	-0.572	98.1	inactive
40	SSH3 (slingshot protein phosphatase 3)	1	-0.357	74.8	-0.0119	83.8	inactive
41	SSH3 (slingshot protein phosphatase 3)	2	-0.326	75.4	-0.0245	84.8	inactive
42	SSH3 (slingshot protein phosphatase 3)	3	0.238	86.6	-0.138	100	inactive
43	RBPJ	1	-0.178	78.3	-0.395	97.1	inactive
44	RBPJ	2	-1.15	59	-0.95	84.6	inactive
45	RBPJ	3	0.692	95.7	-0.183	112	inactive
46	KYAT3 (kynurenine aminotransferase 3)	1	1.66	115	0.891	102	inactive
47	KYAT3 (kynurenine aminotransferase 3)	2	-0.213	77.6	-0.724	105	inactive
48	KYAT3 (kynurenine aminotransferase 3)	3	-1.12	59.7	-1.26	93	inactive
49	TENT4A (terminal nucleotidyltransferase 4A)	1	-0.666	68.6	-0.737	93.1	inactive
50	TENT4A (terminal nucleotidyltransferase 4A)	2	-0.673	68.5	0.0539	75.5	inactive
51	TENT4A (terminal nucleotidyltransferase 4A)	3	-0.46	72.7	-0.302	88	inactive
52	RASSF10 (Ras association domain family member 10)	1	0.708	96	0.0272	106	inactive
53	RASSF10 (Ras association domain family member 10)	2	-0.623	69.5	-0.256	83.1	inactive
54	RASSF10 (Ras association domain family member 10)	3	-0.705	67.9	-0.192	79.8	inactive
55	CD99 (CD99 molecule (Xg blood group))	1	0.173	85.3	0.0581	93.9	inactive
56	CD99 (CD99 molecule (Xg blood group))	2	-0.843	65.1	-0.444	81.8	inactive
57	CD99 (CD99 molecule (Xg blood group))	3	0.441	90.7	0.773	82.7	inactive
